Source: PubChem BioAssay AID1053208 (Peter MacCallum Cancer Centre, 2014)
This is a random part of about 17,000 reagents tested. Over the whole deposit, 788 (4.7%) are marked active. 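Calls rest on z-score classes alone; an extra cut-off of viability at most 70% of control was not applied to them.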 Unmarked entries are inactive. Further read-outs or replicates are left out here.

Assay: 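Synthetic lethal interactions between gene loss and doxorubicin in osteosarcoma cells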 (primary screen)
System: mouse osteosarcoma cells, early-passage culture from an engineered mouse model of fibroblastic bone tumour
Reagents: siRNA pool against mouse genes, 40 nM
Duration: about 120 h (48 h before drug, then 72 h with drug)
Challenge: doxorubicin 100 nM for 72 h, roughly 30-40% inhibitory dose
Measured: 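Viability read as ATP luminescence after 72 h of 100 nM doxorubicin or none, duplicate wells averaged, scaled to non-targeting siRNA, then expressed as robust z-scores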
Direction: viability z-score with doxorubicin: higher = more viable cells under doxorubicin; viability z-score without drug: higher = more viable cells with knock-down alone; z-score of drug to no-drug ratio: higher = less drug sensitisation by knock-down
Active means: 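Called active if knock-down leaves viability unchanged without drug (z within -2 to 2) but lowers it with doxorubicin (z at or under -2)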

gene	combined z-score class	viability z-score with doxorubicin	viability z-score without drug	z-score of drug to no-drug ratio
Gpr137c (GeneID 70713)	no change with or without drug	-0.45	0.51	-0.67
Nfat5 (GeneID 54446)	no change with or without drug	1.12	1.18	0.45
Mgst3 (GeneID 66447)	no change with or without drug	-0.9	1.35	-1.69
Tmem201 (GeneID 230917)	no change with or without drug	-0.45	0.34	-0.56
Tmem60 (GeneID 212090)	no change with or without drug	-0.22	0.51	-0.45
Zfp324 (GeneID 243834)	no change with or without drug	0.45	0.84	0
Fos (GeneID 14281)	no change with or without drug	-0.22	1.52	-1.12
Cer1 (GeneID 12622)	no change with or without drug	-1.69	0.17	-1.8
Or7e178 (GeneID 18315)	no change with or without drug	0.34	0.17	0.34
Mzf1 (GeneID 109889)	high cell count with and without drug	2.14	4.55	-0.56
Pbdc1 (GeneID 67683)	no change with or without drug	0	-0.51	0.45
Tmem205 (GeneID 235043)	no change with or without drug	-1.69	-0.84	-1.12
Emc4 (GeneID 68032)	no change with or without drug	0.22	0.51	0
Abca8a (GeneID 217258)	no change with or without drug	0.45	0.51	0.22
Skap2 (GeneID 54353)	high cell count without drug only	1.57	2.7	-0.11
2410018L13Rik (GeneID 69732)	high cell count with doxorubicin only	2.59	1.85	1.35
Il18 (GeneID 16173)	low cell count without drug only	-0.67	-2.19	1.01
Afap1l1 (GeneID 106877)	low cell count with doxorubicin only (active)	-4.38	0.67	-4.72
Slc7a7 (GeneID 20540)	no change with or without drug	0.79	0.84	0.34
Ralgapa1 (GeneID 56784)	no change with or without drug	-1.35	-0.67	-0.9
Eef1akmt1 (GeneID 68043)	high cell count with and without drug	2.02	2.53	0.45
Tgfbrap1 (GeneID 73122)	no change with or without drug	0.22	-0.67	0.79
Prl6a1 (GeneID 19111)	no change with or without drug	0	1.52	-0.9
P2rx4 (GeneID 18438)	no change with or without drug	0.56	-0.84	1.35
Xrn1 (GeneID 24127)	no change with or without drug	0.22	-1.35	1.35
Arhgef12 (GeneID 69632)	low cell count with doxorubicin only (active)	-2.14	0.51	-2.36

In a second layout: entries from further up
| gene | combined z-score class | viability z-score with doxorubicin | viability z-score without drug | z-score of drug to no-drug ratio |
| --- | --- | --- | --- | --- |
| Slc7a7 (GeneID 20540) | no change with or without drug | 0.79 | 0.84 | 0.34 |
| Ralgapa1 (GeneID 56784) | no change with or without drug | -1.35 | -0.67 | -0.9 |
| Eef1akmt1 (GeneID 68043) | high cell count with and without drug | 2.02 | 2.53 | 0.45 |
| Tgfbrap1 (GeneID 73122) | no change with or without drug | 0.22 | -0.67 | 0.79 |
| Prl6a1 (GeneID 19111) | no change with or without drug | 0 | 1.52 | -0.9 |
| P2rx4 (GeneID 18438) | no change with or without drug | 0.56 | -0.84 | 1.35 |

Continued.
gene	combined z-score class	viability z-score with doxorubicin	viability z-score without drug	z-score of drug to no-drug ratio
4931431C16Rik (GeneID 74364)	high cell count with doxorubicin only	3.26	1.69	2.14
Hepacam (GeneID 72927)	no change with or without drug	0	-0.17	0.22
Rfc1 (GeneID 19687)	no change with or without drug	-1.91	-1.01	-1.24
Gabrg1 (GeneID 14405)	no change with or without drug	0.34	-0.84	1.12
Ar (GeneID 11835)	no change with or without drug	0.45	0.84	0
Chrna3 (GeneID 110834)	no change with or without drug	-0.22	0.34	-0.34
Il4ra (GeneID 16190)	no change with or without drug	1.46	-0.67	2.25
Il23r (GeneID 209590)	no change with or without drug	0	-0.17	0.22
Wdr3 (GeneID 269470)	no change with or without drug	-1.12	-1.52	0
Ndrg4 (GeneID 234593)	no change with or without drug	0.67	0.51	0.45
Lgsn (GeneID 266744)	no change with or without drug	-1.57	-0.67	-1.12
Bhlha9 (GeneID 320522)	no change with or without drug	0	-0.34	0.34
Preb (GeneID 50907)	no change with or without drug	1.57	0.84	1.12
Gm2716 (GeneID 100040328)	high cell count without drug only	0.67	2.19	-0.56
Sec14l4 (GeneID 103655)	no change with or without drug	-1.69	-1.18	-0.9
Or8b55 (GeneID 258777)	no change with or without drug	-0.9	-0.84	-0.22
Polr3b (GeneID 70428)	no change with or without drug	-1.35	-0.51	-1.01
Uba3 (GeneID 22200)	no change with or without drug	-0.22	0.17	-0.22
Serpina1b (GeneID 20701)	no change with or without drug	-0.79	1.18	-1.46
Cdkl2 (GeneID 53886)	no change with or without drug	-1.35	-0.17	-1.24
Tmem71 (GeneID 213068)	no change with or without drug	-0.45	0.84	-0.9
C1qtnf6 (GeneID 72709)	no change with or without drug	0.45	0.84	0
Sema3f (GeneID 20350)	no change with or without drug	-1.91	-0.17	-1.8
Narf (GeneID 67608)	no change with or without drug	0.22	1.18	-0.45
Sfmbt2 (GeneID 353282)	no change with or without drug	-0.9	-1.18	0
Golga7 (GeneID 57437)	no change with or without drug	0.67	0.84	0.22
Il17a (GeneID 16171)	high cell count with and without drug	3.04	2.19	1.57
Slc34a3 (GeneID 142681)	no change with or without drug	-0.45	-1.18	0.45
Henmt1 (GeneID 66715)	no change with or without drug	1.24	1.18	0.56
Coasy (GeneID 71743)	no change with or without drug	-1.12	-0.51	-0.79
Trip12 (GeneID 14897)	no change with or without drug	0.34	-0.17	0.56
Grm1 (GeneID 14816)	high cell count with doxorubicin only	2.02	0.84	1.57
Ca7 (GeneID 12354)	no change with or without drug	-1.57	-0.17	-1.46
Stam2 (GeneID 56324)	no change with or without drug	-0.22	1.35	-1.01
Impa2 (GeneID 114663)	no change with or without drug	0.45	0.67	0.11
Nr2c2 (GeneID 22026)	no change with or without drug	0.9	1.52	0
Slc28a2 (GeneID 269346)	no change with or without drug	-0.22	1.18	-0.9
